In publication doi:10.1101/2024.09.19.613927 one finds binding data, which are given here for one molecule.

In this assay the target is mutant HTT (mHTT) of the zQ175 knock-in mouse (human | mouse). Nature of the assay: co-IP.

No constants are given. Whether binding was seen depends on the method and setting. In cells and extracts the contact can be indirect. Binding can be weak; no strength is given.

B1: DNA LIG IV, mouse (enzyme, UniProt Q8BTF7 1-911)
chain: MASSQTSQTVAAHVPFADLCSTLERIQKGKDRAEKIRHFKEFLDSWRKFHDALHKNRKDVTDSFYPAMRLILPQLERERMAYGIKETMLAKLYIELLNLPREGKDAQKLLNYRTPSGARTDAGDFAMIAYFVLKPRCLQKGSLTIQQVNELLDLVASNNSGKKKDLVKKSLLQLITQSSALEQKWLIRMIIKDLKLGISQQTIFSIFHNDAVELHNVTTDLEKVCRQLHDPSVGLSDISITLFSAFKPMLAAVADVERVEKDMKQQSFYIETKLDGERMQMHKDGALYRYFSRNGYNYTDQFGESPQEGSLTPFIHNAFGTDVQACILDGEMMAYNPTTQTFMQKGVKFDIKRMVEDSGLQTCYSVFDVLMVNKKKLGRETLRKRYEILSSTFTPIQGRIEIVQKTQAHTKKEVVDALNDAIDKREEGIMVKHPLSIYKPDKRGEGWLKIKPEYVSGLMDELDVLIVGGYWGKGSRGGMMSHFLCAVAETPPPGDRPSVFHTLCRVGSGYTMKELYDLGLKLAKYWKPFHKKSPPSSILCGTEKPEVYIEPQNSVIVQIKAAEIVPSDMYKTGSTLRFPRIEKIRDDKEWHECMTLGDLEQLRGKASGKLATKHLHVGDDDEPREKRRKPISKTKKAIRIIEHLKAPNLSNVNKVSNVFEDVEFCVMSGLDGYPKADLENRIAEFGGYIVQNPGPDTYCVIAGSENVRVKNIISSDKNDVVKPEWLLECFKTKTCVPWQPRFMIHMCPSTKQHFAREYDCYGDSYFVDTDLDQLKEVFLGIKPSEQQTPEEMAPVIADLECRYSWDHSPLSMFRHYTIYLDLYAVINDLSSRIEATRLGITALELRFHGAKVVSCLSEGVSHVIIGEDQRRVTDFKIFRRMLKKKFKILQESWVSDSVDKGELQEENQYLL
Regarding B1, the binding entry is reported as “binds”.
